# Reference: article PMC7311471, “The iron–sulphur cluster in human DNA2 is required for all biochemical activities of DNA2”
# Where a chain is given by its changes, count along the chain named. The exact form of at least one protein or probe is not confirmed. A weaker result is weaker than the reference pair of the same experiment. For some assays here: At least one verdict was read from the data and is not stated in words by the source. Tags and fusion partners may be left off the protein sequences shown.
# What was measured:
# DNA2 C136S (human) = molecular target: T1, DNA2 C136S (human) (UniProt P51530); test: EMSA; conditions: 20 and 100 nM protein; EMSA: 25 mM Tris-HCl pH 8.0, 0.1 mg/ml BSA, 5 mM EDTA, with or without 1 mM DTT, 30 min on ice; 4-5 nM FAM-DNA or 1 nM 32P-DNA; recombinant protein; residues 1-1060; protein details: His6 and FLAG; label: FAM (strand and end not shown)
# T1 sequence (looked up): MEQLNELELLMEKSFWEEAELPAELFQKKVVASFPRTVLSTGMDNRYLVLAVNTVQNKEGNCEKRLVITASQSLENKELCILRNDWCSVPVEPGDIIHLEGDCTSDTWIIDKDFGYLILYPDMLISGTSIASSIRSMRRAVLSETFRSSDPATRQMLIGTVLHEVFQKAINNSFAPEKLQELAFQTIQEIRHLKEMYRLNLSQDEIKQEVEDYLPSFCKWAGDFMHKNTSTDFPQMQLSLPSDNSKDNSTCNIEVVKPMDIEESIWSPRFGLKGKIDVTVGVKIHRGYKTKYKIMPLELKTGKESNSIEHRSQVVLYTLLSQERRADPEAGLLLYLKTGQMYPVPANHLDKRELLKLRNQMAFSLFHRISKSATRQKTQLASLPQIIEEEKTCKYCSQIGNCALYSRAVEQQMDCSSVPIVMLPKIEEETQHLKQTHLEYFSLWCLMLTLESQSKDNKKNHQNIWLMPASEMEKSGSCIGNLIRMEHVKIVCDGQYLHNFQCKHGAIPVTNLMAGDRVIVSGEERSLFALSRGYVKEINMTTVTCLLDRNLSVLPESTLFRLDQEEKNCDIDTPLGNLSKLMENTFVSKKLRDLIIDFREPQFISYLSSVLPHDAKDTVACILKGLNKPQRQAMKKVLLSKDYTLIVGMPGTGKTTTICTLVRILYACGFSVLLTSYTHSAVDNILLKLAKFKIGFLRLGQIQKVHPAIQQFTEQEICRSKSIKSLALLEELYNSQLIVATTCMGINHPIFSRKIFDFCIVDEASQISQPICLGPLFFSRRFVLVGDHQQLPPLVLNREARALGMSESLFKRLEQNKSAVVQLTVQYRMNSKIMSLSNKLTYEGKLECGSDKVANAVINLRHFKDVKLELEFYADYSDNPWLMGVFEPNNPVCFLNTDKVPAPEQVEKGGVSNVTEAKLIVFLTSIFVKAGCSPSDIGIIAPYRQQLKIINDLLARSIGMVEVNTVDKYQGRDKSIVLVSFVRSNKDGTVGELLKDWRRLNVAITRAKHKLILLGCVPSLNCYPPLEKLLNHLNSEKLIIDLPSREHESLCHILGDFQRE
# DNA2 C743S (human) = molecular target: T2, DNA2 C743S (human) (UniProt P51530); test: EMSA; conditions: 100 nM protein, H2O2, remains sensitive to oxidation; EMSA: 25 mM Tris-HCl pH 8.0, 0.1 mg/ml BSA, 5 mM EDTA, with or without 1 mM DTT, 30 min on ice; 4-5 nM FAM-DNA or 1 nM 32P-DNA; recombinant protein; residues 1-1060; protein details: FLAG; label: FAM (strand and end not shown)
# T2 sequence (looked up): T1 sequence (looked up) with S136C, C743S
sequence,measurement,setting,value
ATCGATAGTCGGATCCTCTAGACAGCTCCATGTAGCAAGGCACTGGTAGAATTCGGCAGCGT / GACGCTGCCGAATTCTACCAGTGCCTTGCTAGGACATCTTTGCCCACCTGCAGGTTCACCC / TGGGTGAACCTGCAGGTGGGCAAAGATGTCC [5' flap (FAM)],binding result,DNA2 C136S (human),binds more weakly
same,binding result,DNA2 C743S (human),binds more weakly
